# Reference: the supplement of paper PMC3334620
# Whole data set: some 33,000 sequences, median “E-score (-0.5 to 0.5)” near -0.015, cut for the highest 2% near 0.3. The list shows a part of the results.
# Molecular target: T1, Abf1 (UniProt P14164)
# T1 sequence: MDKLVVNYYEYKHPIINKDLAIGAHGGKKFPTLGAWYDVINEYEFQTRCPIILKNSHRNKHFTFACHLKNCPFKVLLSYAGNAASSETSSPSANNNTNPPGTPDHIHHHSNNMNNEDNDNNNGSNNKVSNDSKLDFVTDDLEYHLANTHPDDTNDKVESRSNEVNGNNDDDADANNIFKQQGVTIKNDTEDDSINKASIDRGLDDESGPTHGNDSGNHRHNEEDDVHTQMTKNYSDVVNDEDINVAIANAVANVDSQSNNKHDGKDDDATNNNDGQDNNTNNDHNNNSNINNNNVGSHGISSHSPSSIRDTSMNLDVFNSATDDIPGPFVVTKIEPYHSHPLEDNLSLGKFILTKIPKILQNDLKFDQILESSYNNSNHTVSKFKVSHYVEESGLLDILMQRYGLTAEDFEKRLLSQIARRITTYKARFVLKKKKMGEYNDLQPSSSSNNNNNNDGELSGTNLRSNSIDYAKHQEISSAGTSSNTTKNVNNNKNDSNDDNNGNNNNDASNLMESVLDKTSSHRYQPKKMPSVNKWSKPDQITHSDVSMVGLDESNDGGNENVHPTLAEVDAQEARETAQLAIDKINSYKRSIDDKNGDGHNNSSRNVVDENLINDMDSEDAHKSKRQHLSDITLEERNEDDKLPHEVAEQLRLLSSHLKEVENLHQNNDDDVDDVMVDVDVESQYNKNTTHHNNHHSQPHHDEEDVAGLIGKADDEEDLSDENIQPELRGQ
# Assay: PBM E-score (8-mer binding enrichment) (E-score (-0.5 to 0.5)); higher = stronger / more preferred TF binding
# Settings: protein concentration: 200 nM; construct: GST-full length
# Procedure, shortened: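 GST-tagged yeast TFs (full-length or DNA-binding domain) were made by PURExpress in vitro transcription/translation and applied at about 100-200 nM to universal all-10-mer Agilent arrays. The arrays were made double-stranded by primer extension, on fresh or once-stripped slides. Bound protein was detected with fluorescent anti-GST, and scans were normalised with masliner. Each ungapped eight-base word, pooled with its reverse complement, received an E-score (modified Wilcoxon-Mann-Whitney statistic) from the Universal PBM Analysis Suite.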
row,Sequence,PBM E-score
1,CTTGTGCA,-0.034
2,CCTGTAGC,-0.368
3,GCCTTAAC,-0.156
4,CTCTGGGC,-0.21
5,CGAGGCGC,0.141
6,AACACCGG,-0.0591
7,AACCGGGG,-0.212
8,AGGGGTAA,-0.167
9,AGTGAGCA,-0.0139
10,ATCGAGAG,-0.144
11,CGACGCGC,0.108
12,CGAACCGC,0.0253
13,TATCATAA,0.217
14,GACGCGCA,-0.133
15,AATGACGC,0.106
16,TGTGAAAA,0.213
17,ACATATAG,0.0658
18,AAGGAACT,-0.184
19,CTCCACCC,-0.317
20,GATTGCAC,0.19
21,CGAATTGA,0.126
22,AAGATGGT,-0.107
23,ACAGGACT,-0.152
24,GATAGATA,0.0466
25,GATCAGGA,0.0156

# Some of the entries above, set out differently.
row	Sequence	PBM E-score
9	AGTGAGCA	-0.0139
10	ATCGAGAG	-0.144
11	CGACGCGC	0.108
12	CGAACCGC	0.0253
13	TATCATAA	0.217

# (next part)

row,Sequence,PBM E-score
1,ACGTAAAG,-0.0198
2,AAACGACA,0.321
3,CCTCTGCG,-0.123
4,AGTATTGA,0.0838
5,CGCGTGTA,0.0277
6,ACGCGTCG,0.12
7,CGATTTTC,0.155
8,AGATCTGA,-0.0836
9,TCTGTACA,-0.0409
10,CCTAGTCC,-0.188
11,GTCGCTCA,0.191
12,AAGGCGGG,-0.114
13,CTCAGCCC,-0.0568
14,CATTCTCC,0.0969
15,AGCTACGA,0.029
16,TCCATCCA,-0.0497
17,TCCTTCAA,-0.0723
18,ACGATGTG,0.196
19,AGAGCTAA,-0.156
20,ACGAAGAG,0.214
21,ACCCAACA,-0.101
22,CTTGATTC,-0.121
23,CCGGATGC,-0.165
24,AAGGAGAA,-0.198
25,ATAGTTGA,0.0299

row,Sequence,PBM E-score
1,ATACTCTG,0.0248
2,CTAGTAAG,-0.0501
3,CTTGAGTA,-0.00562
4,ACAGAAGG,-0.131
5,ATCTAATC,0.163
6,AGATCATC,0.273
7,CAGGCAGC,-0.177
8,ACGCTACT,-0.0355
9,ATTTATAA,0.176
10,CGGCACAC,0.173
11,ACAGCCTG,0.0129
12,CATGATGG,-0.191
13,CATATTGC,-0.108
14,CATCGGCC,-0.154
15,AGGTAGCC,-0.097
16,GAAGCAGC,-0.147
17,ATGCAAGC,-0.0371
18,AAGTAGTG,0.132
19,ATTGTTGA,0.14
20,ATAACACA,0.0628
21,TATCTAGA,0.0211
22,CTGGCAAC,-0.238
23,AGTCAGAA,0.0706
24,AGTTAGAC,0.079
25,ATAGATCA,0.267

row,Sequence,PBM E-score
1,GGTAGCAA,-0.111
2,GTTTATTA,0.0803
3,ACATCCAA,-0.0391
4,GTCCTCCA,0.0381
5,ACGGCACA,0.143
6,AACGGACT,-0.0919
7,CCTAGGAG,-0.121
8,TAATAGTA,0.187
9,ATCGGAAG,-0.112
10,GGGCGGAA,-0.21
11,GGATGAAC,0.122
12,CCGATCAA,-0.129
13,ACCAAGCG,-0.25
14,GTCGGCCA,-0.147
15,CCCTAAAA,-0.176
16,CCAATTAG,-0.018
17,ATGGGACC,-0.0822
18,CCCCCCAC,-0.361
19,TACATGTA,0.0309
20,CCAGACTA,-0.0283
21,CTCGGGAA,0.0853
22,CTAGCGCA,-0.317
23,AGTAACAC,0.013
24,CACATTTC,0.0894
25,GGTGCCTA,-0.164

row,Sequence,PBM E-score
1,CAATACAA,-0.162
2,CAGAGCTA,-0.25
3,AAAAGATT,0.0144
4,CGCACAAG,-0.154
5,CTCAGTGC,-0.256
6,CGGGTACG,-0.0332
7,CTTAGCCA,0.0975
8,CATAACTA,0.0945
9,GAGGAGAA,-0.108
10,CAGGGAGC,-0.191
11,AACAAACC,0.0194
12,AACCGACT,-0.117
13,CGACTGCA,0.0303
14,ACAGATGC,-0.0305
15,AGTGACTA,0.324
16,CCTCATAC,-0.00761
17,TCAGTAAA,0.0086
18,CTCAAGAC,-0.0817
19,ACCTATAG,-0.176
20,AGGCCATG,-0.191
21,GCAAAAAC,0.0419
22,CATCTCCC,-0.0258
23,CTCACCCC,-0.0665
24,GTTAACTA,0.122
25,CGCCGCGA,0.0127

# Quoted at random: 3 entries already listed, in no set order.
row,Sequence,PBM E-score
5,CTCAGTGC,-0.256
2,CAGAGCTA,-0.25
21,GCAAAAAC,0.0419

# The listing continues.

row,Sequence,PBM E-score
1,CGTCCCAA,0.252
2,CAGTTCAG,-0.126
3,AAAATTAC,0.0976
4,ATGAAAAT,0.148
5,ATGGCCAC,-0.203
6,TAAGAGGA,-0.136
7,GTTGAAAA,0.194
8,AAGGCGAG,-0.0978
9,CCGTCTAA,0.266
10,CTGTAAGA,-0.0346
11,GTATGCAA,0.0172
12,ATAAACAT,0.145
13,GAATTGGC,-0.16
14,CTGAAGAA,-0.224
15,CTCACCAC,-0.0754
16,TAACCTAA,0.117
17,AACCGGTA,-0.163
18,ACCGTGTA,0.0532
19,CAATCCAC,0.0198
20,TAAGCTGA,-0.0181
21,ATCGAATA,-0.0208
22,AGCTGCCT,-0.236
23,TAAATTCA,0.0731
24,CCACCAGA,-0.18
25,GTACATCA,0.217

row,Sequence,PBM E-score
1,TCATATAA,0.128
2,AGCTTTAG,-0.274
3,CCTTGGGC,-0.213
4,CTCTAGAA,-0.204
5,GGGAGAGA,0.0241
6,GTCGAAGA,-0.0269
7,GGGCACAA,-0.353
8,ACGGTCCG,0.141
9,GCGTGTAA,-0.014
10,CGCCCTAC,-0.105
11,AACAACTC,-0.0812
12,CGTAGACG,0.179
13,CGACGTAC,0.322
14,ACGTCGAG,-0.22
15,GAACGTGC,-0.1
16,GAGAGTGC,-0.192
17,CCCATTAG,-0.263
18,ATATGAGA,0.0636
19,ACTAATTG,-0.0772
20,GGCAAACA,-0.106
21,CCAGATCC,-0.232
22,CGTGCAAA,0.337
